These are yes or no findings as the source states them, for the method shown. In cells and extracts the contact can be indirect. Binding can be weak; no strength is given.
Biological target: voltage dependent anion channel 1 (VDAC1) (mouse (endogenous in HT22)) (UniProt Q60932)
Assay: proximity ligation; in situ Duolink PLA on fixed, permeabilised HT22 cells with anti-InsP3R1 and anti-VDAC1 primary antibodies; control cells, 1 μM AβO for 23 h, 10 μM Tac, and Tac plus AβO; PLA puncta counted

The chains behind the UniProt entries cited, without tags or fusion partners. Where a name states a change or a piece, a line headed by the entry shows the natural chain unless it says otherwise.
UniProt Q60932: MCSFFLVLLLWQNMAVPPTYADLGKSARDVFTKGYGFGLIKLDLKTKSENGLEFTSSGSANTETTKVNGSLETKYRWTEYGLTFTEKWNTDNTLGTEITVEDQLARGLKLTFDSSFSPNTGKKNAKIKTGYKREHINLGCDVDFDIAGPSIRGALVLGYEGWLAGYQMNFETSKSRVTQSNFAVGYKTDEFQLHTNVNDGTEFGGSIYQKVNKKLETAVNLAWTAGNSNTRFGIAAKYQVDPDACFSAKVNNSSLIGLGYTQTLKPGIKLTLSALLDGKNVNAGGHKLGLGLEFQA
UniProt P11881: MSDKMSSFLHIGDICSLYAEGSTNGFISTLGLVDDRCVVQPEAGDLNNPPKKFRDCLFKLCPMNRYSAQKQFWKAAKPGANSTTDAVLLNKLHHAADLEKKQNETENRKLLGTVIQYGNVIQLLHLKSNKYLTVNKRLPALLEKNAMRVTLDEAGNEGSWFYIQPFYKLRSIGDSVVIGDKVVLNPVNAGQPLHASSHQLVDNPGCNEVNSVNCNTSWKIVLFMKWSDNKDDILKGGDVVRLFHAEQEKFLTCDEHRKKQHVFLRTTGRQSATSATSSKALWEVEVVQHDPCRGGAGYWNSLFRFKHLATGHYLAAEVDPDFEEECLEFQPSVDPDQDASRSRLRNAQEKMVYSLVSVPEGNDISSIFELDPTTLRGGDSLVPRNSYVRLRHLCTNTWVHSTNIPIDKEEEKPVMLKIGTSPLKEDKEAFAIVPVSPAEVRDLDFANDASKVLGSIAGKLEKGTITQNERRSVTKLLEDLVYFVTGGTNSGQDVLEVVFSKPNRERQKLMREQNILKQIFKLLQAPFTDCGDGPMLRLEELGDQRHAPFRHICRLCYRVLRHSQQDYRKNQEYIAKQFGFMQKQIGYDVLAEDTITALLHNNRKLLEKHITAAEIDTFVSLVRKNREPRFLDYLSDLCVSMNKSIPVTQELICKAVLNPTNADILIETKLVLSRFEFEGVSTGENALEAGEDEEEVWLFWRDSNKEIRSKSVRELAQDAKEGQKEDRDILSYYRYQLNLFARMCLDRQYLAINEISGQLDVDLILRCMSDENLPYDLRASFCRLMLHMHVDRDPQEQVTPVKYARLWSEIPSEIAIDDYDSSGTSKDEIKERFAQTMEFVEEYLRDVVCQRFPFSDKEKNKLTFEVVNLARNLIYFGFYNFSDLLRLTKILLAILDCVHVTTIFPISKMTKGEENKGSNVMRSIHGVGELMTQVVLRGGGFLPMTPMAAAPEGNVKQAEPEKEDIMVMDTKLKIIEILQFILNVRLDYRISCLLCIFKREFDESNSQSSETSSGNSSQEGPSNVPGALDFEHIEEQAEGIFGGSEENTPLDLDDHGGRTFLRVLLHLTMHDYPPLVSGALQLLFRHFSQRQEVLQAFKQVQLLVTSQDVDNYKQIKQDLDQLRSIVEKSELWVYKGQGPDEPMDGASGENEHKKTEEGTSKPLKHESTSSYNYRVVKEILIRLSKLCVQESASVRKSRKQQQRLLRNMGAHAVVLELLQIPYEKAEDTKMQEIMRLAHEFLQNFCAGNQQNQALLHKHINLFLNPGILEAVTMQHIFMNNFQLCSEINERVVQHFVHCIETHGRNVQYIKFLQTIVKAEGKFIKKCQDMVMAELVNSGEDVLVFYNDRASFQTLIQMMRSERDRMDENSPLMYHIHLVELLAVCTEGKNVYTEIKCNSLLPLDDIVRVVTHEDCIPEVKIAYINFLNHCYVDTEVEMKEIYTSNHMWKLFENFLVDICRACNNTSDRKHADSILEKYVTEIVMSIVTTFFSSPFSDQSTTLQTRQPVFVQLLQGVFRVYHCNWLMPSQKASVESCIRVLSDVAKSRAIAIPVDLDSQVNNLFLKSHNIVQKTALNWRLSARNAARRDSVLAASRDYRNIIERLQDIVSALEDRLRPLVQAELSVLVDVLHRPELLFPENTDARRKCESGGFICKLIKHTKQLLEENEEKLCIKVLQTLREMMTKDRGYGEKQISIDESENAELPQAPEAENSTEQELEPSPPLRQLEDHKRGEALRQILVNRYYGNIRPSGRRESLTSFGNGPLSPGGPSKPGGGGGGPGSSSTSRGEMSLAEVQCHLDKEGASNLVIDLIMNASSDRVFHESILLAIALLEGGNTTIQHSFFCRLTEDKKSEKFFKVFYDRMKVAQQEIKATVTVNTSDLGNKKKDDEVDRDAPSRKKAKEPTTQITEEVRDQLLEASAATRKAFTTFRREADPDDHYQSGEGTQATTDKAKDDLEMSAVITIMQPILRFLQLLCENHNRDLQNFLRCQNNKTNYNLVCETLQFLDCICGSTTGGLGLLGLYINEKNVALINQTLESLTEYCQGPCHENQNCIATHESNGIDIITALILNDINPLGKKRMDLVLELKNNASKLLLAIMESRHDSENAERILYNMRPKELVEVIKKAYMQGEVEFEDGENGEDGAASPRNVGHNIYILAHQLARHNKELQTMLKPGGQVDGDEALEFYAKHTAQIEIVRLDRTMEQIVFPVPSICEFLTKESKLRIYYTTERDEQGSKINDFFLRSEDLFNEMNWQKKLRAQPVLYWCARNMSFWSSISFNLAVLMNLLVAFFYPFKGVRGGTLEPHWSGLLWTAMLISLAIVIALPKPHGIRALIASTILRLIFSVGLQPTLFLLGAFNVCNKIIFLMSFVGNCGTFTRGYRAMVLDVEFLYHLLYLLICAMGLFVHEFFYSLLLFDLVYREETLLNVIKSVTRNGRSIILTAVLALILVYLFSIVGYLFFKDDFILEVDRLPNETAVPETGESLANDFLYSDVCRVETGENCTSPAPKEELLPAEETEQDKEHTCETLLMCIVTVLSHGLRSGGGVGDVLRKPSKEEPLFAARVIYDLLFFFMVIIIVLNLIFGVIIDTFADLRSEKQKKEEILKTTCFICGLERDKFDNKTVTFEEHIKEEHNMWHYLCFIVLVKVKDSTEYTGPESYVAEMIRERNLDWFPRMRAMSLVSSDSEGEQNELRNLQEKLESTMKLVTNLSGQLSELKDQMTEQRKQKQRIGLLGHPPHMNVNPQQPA

Q: With “inositol 1,4,5-trisphosphate receptor 1 (InsP3R1) (from UniProt P11881 1-2749)” as the substance, how does the binding read?
A: Its binding is “binds”.
